Measurements from “University of Dundee, Small-Polar-MMV Screening Library” (2021), ChEMBL document CHEMBL3988442.

By UniProt entry, the sequences of proteins in these tests, tags left out.
UniProt E9BF75, entry or part of it: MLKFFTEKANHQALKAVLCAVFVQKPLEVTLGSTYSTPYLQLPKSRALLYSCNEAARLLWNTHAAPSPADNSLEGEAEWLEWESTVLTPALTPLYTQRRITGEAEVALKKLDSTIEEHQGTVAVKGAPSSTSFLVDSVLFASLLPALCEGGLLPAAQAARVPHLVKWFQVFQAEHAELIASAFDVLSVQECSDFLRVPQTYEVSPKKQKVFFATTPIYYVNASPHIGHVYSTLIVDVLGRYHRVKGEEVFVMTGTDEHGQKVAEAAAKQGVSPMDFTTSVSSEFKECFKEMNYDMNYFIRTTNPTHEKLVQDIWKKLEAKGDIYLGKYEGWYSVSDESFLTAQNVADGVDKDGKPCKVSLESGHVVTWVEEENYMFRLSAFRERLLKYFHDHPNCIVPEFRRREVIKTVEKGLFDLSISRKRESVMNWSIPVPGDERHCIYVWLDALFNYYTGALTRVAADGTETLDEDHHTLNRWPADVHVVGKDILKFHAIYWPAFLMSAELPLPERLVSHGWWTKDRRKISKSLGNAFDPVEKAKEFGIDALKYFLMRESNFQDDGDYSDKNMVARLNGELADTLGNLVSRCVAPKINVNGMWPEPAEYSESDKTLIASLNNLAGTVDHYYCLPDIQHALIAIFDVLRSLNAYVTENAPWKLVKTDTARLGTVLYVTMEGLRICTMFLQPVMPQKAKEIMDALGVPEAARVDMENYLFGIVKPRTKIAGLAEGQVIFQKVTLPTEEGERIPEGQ

All values are in %. How 0% and 100% were set is not recorded. Most values in the screen are low, and negative values occur. This is an unselected part of the compounds tested.

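Primary screen of methionyl-tRNA synthetase; the read-out is not stated. Target: Methionyl-tRNA synthetase (putative), Leishmania donovani (UniProt E9BF75). The test concentration is not given. Values are per cent inhibition. Size under these conditions: about 68,000 compounds, about 24 of them at 50% or above in at least one test.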

Compound	inhibition
CC(C)c1nn(C)c(Cl)c1CNCc1cccnc1N(C)C	13.25
CCCc1nc2c(c(C)c(C)n2CCN(C)C)c(N)c1CC	5.263
CNC(=O)CN1CCC(c2cc(OC)cc(OC)c2)C1 (configuration not stated)	9.218
CNC(=O)C1(CCCc2ccncc2)CCCCN1 (configuration not stated)	1.562
Cc1cnn(CCC(=O)N2CCOC(c3nc(C(C)(C)C)n[nH]3)C2)c1 (configuration not stated)	-0.885
Cc1ccc(CN2CC(C(=O)Nc3ccccc3)C3(CCOCC3)C2)s1 (configuration not stated)	12.97
COCc1ncc(CN2CCN(C)C(=O)C2C)cn1 (configuration not stated)	11.39
Cc1nc(C)c(C(=O)N2CCc3nnc(C4CCCCN4C)n3CC2)o1 (configuration not stated)	4.717
Cc1nn(C)c(Cl)c1C1CCCN1C(=O)c1ccnn1C (configuration not stated)	19.94
Cc1cc(N(C)C)nc(C2COCCN2Cc2cc(C)on2)n1 (configuration not stated)	7.233
O=C(c1cc(Cl)c2c(c1)OCO2)N1CCN(c2ccccn2)CC1	5.419
COCCS(=O)(=O)c1ncc(CN(C)CC(C)C)n1Cc1ccccc1	14.38
O=C(C1CCOCC1)N1C[C@@H]2CN(Cc3ccsc3)CCO[C@@H]2C1	10.99
COCCN1CCC2(C1)c1ccccc1S(=O)(=O)N2C (configuration not stated)	10.93
Cc1ccc(NC(=O)N(CCO)Cc2ccsc2)cc1	-6.7
Cc1ccc(CN2CCN(Cc3nccn3C)[C@H]3CS(=O)(=O)C[C@H]32)o1	15.93
O=C(c1c2c(N3CCCC3)ncnc2n2ccccc12)N1CCOCC1	7.299
O=C(O)CC(NC(=O)c1ccccc1OC(F)F)c1cccs1 (configuration not stated)	14.61
CCN(C)CC1CCN(S(=O)(=O)c2cc(C)c(F)cc2Cl)C1 (configuration not stated)	7.419
CC1(C)CC(CC(=O)N2CC(C)(C)[C@@](C)(O)C2)CC(C)(C)N1	8.289
COc1cccc(C(C)N2CCN(S(=O)(=O)CCCF)CC2)c1 (configuration not stated)	5.013
Cc1noc(-c2cccnc2N2CCN(c3cnn(C)c3)CC2)n1	9.218
CN(C)C(=O)CNC(=O)c1cc2ccccc2nc1N1CCCC1	19.62
CN1CCN(Cc2cn3c(n2)CN(Cc2ccc(F)cc2)CC3)CC1	14.08
CCOC(=O)CC1CCCCN1C(=O)c1cnc(C)cn1 (configuration not stated)	5.455
Cc1csc(NC(=O)C2CSCCC(=O)N2)n1 (configuration not stated)	13.67
CN(C)C(=O)CN1CC[C@H]2[C@H]1CCN2c1ncccn1	16.79
CCCc1n[nH]c(C2CN(CCS(=O)(=O)CC)CCO2)n1 (configuration not stated)	18.62
Cc1cc(C)n(CCN2CCN(C(=O)c3ccc(Br)o3)CC2)n1	10.07
COc1ccccc1C(=O)N1CCOCC1c1c(C)n[nH]c1C (configuration not stated)	18.7
Cc1cc(N2CCCC2c2nc(C)cc(CCC(=O)O)n2)ncn1 (configuration not stated)	14.79
CCC(NCc1cc[nH]n1)c1nc(C(F)(F)F)cs1 (configuration not stated)	12.2
CS(=O)(=O)N1CCC(Cc2cnc(Br)cn2)C1 (configuration not stated)	-6.383
CC(=O)N1N=C(c2ccccc2)OC1C(=O)NCCc1cccc(Cl)c1 (configuration not stated)	10.14
O=C(Cc1cccnc1)N1CCC(c2nnc(-c3ccccn3)o2)CC1	9.688
Cc1noc(-c2ccc(N3CCCC(C(=O)O)C3)nc2)n1 (configuration not stated)	4.416
O=C(NCc1cccnc1N1CCCCC1)c1cccs1	16.87
Cc1cccc(-c2nnc(C(C)NCCn3cc(C)cn3)o2)c1 (configuration not stated)	2.439
COC(C)(C)CC(C)NCc1cc(-c2ccco2)on1 (configuration not stated)	2.558
CCCC(NC(=O)c1cnccn1)c1nnc2ccccn12 (configuration not stated)	12.78
Cc1cc(CN2CCOC(CNc3cccnn3)C2)no1 (configuration not stated)	24.7
CO[C@H]1CCN(c2ncc(F)cn2)[C@@H]2CN(Cc3ccco3)C[C@H]12	6.574
COCc1ncn2c1CN(C(=O)c1ccc[nH]1)CC2	15.74
COc1ccc(C(C)Nc2cnn(C)c(=O)c2Cl)cc1OC (configuration not stated)	21.53
CC(NC(=O)NCCCn1ccnc1)c1ccc2c(c1)CCC(=O)N2 (configuration not stated)	7.042
O=C(O)C(c1ccc2c(c1)OCCO2)N1CCSCC1 (configuration not stated)	7.821
Cc1nc(N2CCCC2)nc2c1CCN(C(=O)CC1CCCC1)CC2	5.476
CN1CCO[C@@H]2CN(S(=O)(=O)c3cccs3)CC[C@@H]2C1	9.29
Cn1ccnc1C(=O)N1CCC(Cn2cc(-c3ccsc3)nn2)CC1	2.847
O=C(CCNS(=O)(=O)c1ccc(Cl)cc1)NCc1ccoc1	14.32
Cc1occc1C(=O)N1CCC2(CC1)NC(=O)CC2c1cnn(C)c1 (configuration not stated)	17.17
CC(C)C(NC(=O)N1CCN(c2ccc(Cl)cc2)CC1)C(=O)NC1CC1 (configuration not stated)	10.37
Cn1ccnc1C(=O)NCCS(=O)(=O)c1ccc(C(C)(C)C)cc1	10.99
CCN1CCN(C(=O)C(C)N2CCN(Cc3nccn3C)CC2)CC1 (configuration not stated)	9.841
COC(=O)C(C)NC(=O)CSCc1nc(O)c2cc(C(C)C)sc2n1 (configuration not stated)	5.974
O=C(NCc1cncc2c1CCN(C1CCOC1)C2)c1ccco1 (configuration not stated)	8.242
Cc1nn(C)cc1S(=O)(=O)N[C@@H]1CC[C@@H](n2ccnc2C)[C@@H]1O	12.89
CCc1nc(CN(C)C2CCN(CCCOc3ccccc3)C2)no1 (configuration not stated)	1.639
Cn1nc(CN2CCCCC2)c2c1CN(C(=O)c1ccccc1)C2	-4.375
CCCc1n[nH]c(C2CN(CCCS(=O)(=O)N(C)C)CCO2)n1 (configuration not stated)	16.33
O=C(C1CCCN(Cc2ccccc2)C1)N1CCc2sccc2C1 (configuration not stated)	5.694
CSc1ncccc1C(=O)N1C[C@H]2CC[C@@H]1CN(C(=O)N(C)C)C2	16.88
CCCNC(=O)c1cccc(CNCc2csc(CC)n2)c1	8.982
CC(C)CN1CCn2nc(CNc3ncnc4[nH]ccc34)cc2C1	13.71
COc1c(C(=O)N2CCC(COCc3ccccc3)C2)c(C)nn1C (configuration not stated)	18.47
Cc1cccc(CN2CCCCC23CCNC3)n1 (configuration not stated)	15.13
O=C1OCCC1N1CCN(C(=O)Cc2ccccc2Cl)CC1 (configuration not stated)	16.87
OCC1CCCN1c1cc(NCc2cccs2)ncn1 (configuration not stated)	16.94
Cc1ccc(C)c(OCC(O)CN(C)CC(=O)Nc2cc(C)on2)c1 (configuration not stated)	5.08
CCN1CCCC(O)(CNCc2ccccn2)C1 (configuration not stated)	11.28
NC(=O)CN1C(=O)CO[C@H]2CN(Cc3ccc(F)c(F)c3)C[C@H]21	9.774
O=C(c1nc(=O)[nH][nH]1)N1CCCCCC1	15.25
CC(O)CN1CCN(C(=O)Cc2ccccc2Cl)CC1 (configuration not stated)	21.58
Cc1nccn1-c1nccnc1C1CCN(Cc2ccc(F)cc2)CC1	5.226

Some entries from above, unchanged:

Compound,inhibition
COc1cccc(C(C)N2CCN(S(=O)(=O)CCCF)CC2)c1 (configuration not stated),5.013
O=C(CCNS(=O)(=O)c1ccc(Cl)cc1)NCc1ccoc1,14.32
CCCc1n[nH]c(C2CN(CCCS(=O)(=O)N(C)C)CCO2)n1 (configuration not stated),16.33
CC(C)C(NC(=O)N1CCN(c2ccc(Cl)cc2)CC1)C(=O)NC1CC1 (configuration not stated),10.37
Cn1ccnc1C(=O)NCCS(=O)(=O)c1ccc(C(C)(C)C)cc1,10.99
O=C1OCCC1N1CCN(C(=O)Cc2ccccc2Cl)CC1 (configuration not stated),16.87
Cc1cc(C)n(CCN2CCN(C(=O)c3ccc(Br)o3)CC2)n1,10.07